The other results are listed elsewhere or left out. Further columns of the screen follow, without active or inactive calls. The list favours compounds with an active or inconclusive main result. Words in brackets tell the shape of the fitted curve; partial curves, single points and poor fits give uncertain potencies.
Assay: qHTS Assay for Lipid Storage Modulators in Drosophila S3 Cells;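 for cell number change: cells counted by Cell Tracker Red CMTPX staining in the red channel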
Settings: BODIPY lipid droplet fluorescence, 18-24 h; for cell number change: measured here: cell count max response, cells fed with added oleic acid
How it was run: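 Drosophila S3 cells got compounds at several concentrations plus oleic acid (400 uM solution). Laser-scanning cytometry with 488 nm excitation read lipid droplets at 500-530 nm and cells at 575-640 nm. Percent activity was relative to 20 uM Triacsin C.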

[1] = measured here: cell number channel AC50, cells fed with added oleic acid
[2] = measured here: lipid fluorescence (Fed channel) AC50, cells fed with added oleic acid

With C=CCCCCc1nc2ccccc2c(=O)n1N the cell number change was 32.4%, the AC50 [1] was 16.4 µM [rising, partial curve] and the AC50 [2] was 29.1 µM [rising, single point].

In the case of COc1ccc2oc(-c3ccccc3)c(C(N)=O)c2c1, the cell number change is reported as -22.2% and the AC50 [2] is reported as 10.3 µM [rising, partial curve].

For COc1cc(C(=O)NCC(=O)NCCN2C(=O)S/C(=C\c3ccccc3Cl)C2=O)cc(OC)c1OC, the cell number change was 79.1% and the AC50 [1] was 8.2 µM [rising, partial curve].

In the case of CC(=O)c1ccc(OCCCC(=O)NC2CCC(C)CC2)cc1 (stereo not given), the cell number change is reported as -2.38% and the AC50 [2] is reported as 3.66 µM [rising, partial curve].

With COc1ccc(OCC(=O)NNC(=O)C(=O)Nc2ccc(C)cc2)cc1 the cell number change was -2.74% and the AC50 [2] was 2.31 µM [rising, full curve].

CCn1c(=O)c(-c2ccccc2)c(O)c2ccccc21 showed a cell number change of -9.13%.

For C[N+](C)=C1SCC(C)(/C=N/O)S1 (stereo not given), the cell number change was -41.1% and the AC50 [2] was 0.58 µM [falling, full curve, poor fit].

With CCn1cc(C(=O)O)c(=O)c2cc(F)c(N3CCN(C(=S)NC(=O)c4c(OC)cccc4OC)CC3)cc21 the cell number change was 171%, the AC50 [1] was 29.1 µM [rising, single point] and the AC50 [2] was 29.1 µM [rising, single point].

For O=C(NCc1ccco1)c1ccccc1SCC(=O)N1CCCC1, the cell number change was 19.7% and the AC50 [2] was 4.61 µM [rising, full curve, poor fit].

For N=c1c2c(-c3ccccc3)c(-c3ccccc3)n(Cc3ccco3)c2ncn1Cc1ccco1, the cell number change was -29% and the AC50 [2] was 32.6 µM [falling, single point].

With COc1ccc(C(=O)NCC(c2cccnc2)N2CCN(c3ccccc3OC)CC2)cc1OC (stereo not given) the AC50 [1] was 0.259 µM [rising, partial curve, poor fit] and the AC50 [2] was 0.411 µM [rising, full curve].

For O=C(Nc1cccs1)Nc1ccccc1Cl, the cell number change was -9.17% and the AC50 [2] was 0.0326 µM [rising, full curve, poor fit].

For Cc1nn(-c2ccccc2)c(N2CCCC2)c1/C=N/NC(=S)Nc1ccccc1F, the cell number change was -51.4%, the AC50 [1] was 29.1 µM [falling, single point] and the AC50 [2] was 13 µM [rising, partial curve, poor fit].

With CCCC(=O)Nc1ccc(Cl)c(NC(=S)NC(=O)c2cc3ccccc3o2)c1 the cell number change was -46.2%, the AC50 [1] was 3.26 µM [falling, full curve, poor fit] and the AC50 [2] was 5.8 µM [falling, partial curve].

With CC(=O)Nc1ccc(N2Cc3ccccc3C2)cc1 the cell number change was -7.37%.

For COc1cc(OC)cc(C(=O)N[C@H](C(=O)Nc2ccccc2N2CCOCC2)C(C)C)c1, the cell number change was 96.1%, the AC50 [1] was 3.66 µM [rising, full curve] and the AC50 [2] was 2.31 µM [rising, partial curve].

With Cc1cc(/C=C\c2ccc3cc(N(C)C)ccc3[n+]2C)c(C)n1-c1ccccc1 the cell number change was -100%, the AC50 [1] was 1.03 µM [falling, full curve] and the AC50 [2] was 0.82 µM [falling, full curve].

With O=C(COc1ccc(Br)cc1Cl)N1CCN(c2ccccn2)CC1 the cell number change was 13.8% and the AC50 [1] was 3.66 µM [rising, partial curve].

For COc1ccccc1OCC(O)Cn1nc(C)cc1C (stereo not given), the AC50 [2] was 6.51 µM [rising, single point].

For O=C(c1ccccc1)c1nnc(-c2ccncc2)o1, the cell number change was 29.7% and the AC50 [2] was 5.17 µM [falling, partial curve].

Compound CCN1CCN(CCC(=O)Nc2cc(OC)cc(OC)c2)CC1 has a cell number change of 10.1%.

In the case of CCOC(=O)c1nnn2c1nc(Nc1cccc(C(F)(F)F)c1)c1ccccc12, the cell number change is reported as 4.47% and the AC50 [2] is reported as 0.651 µM [rising, full curve].

In the case of CCN(CC)CCN1C(=O)C(=O)/C(=C(/O)c2ccc(OC(C)C)cc2)C1c1ccncc1 (stereo not given), the cell number change is reported as 2.9% and the AC50 [2] is reported as 0.651 µM [falling, single point].

Work on CCOC(=O)CNC(=O)CSc1nc2cccnc2n1Cc1ccccc1 yielded a cell number change of -24.1%.

With O=C(CSc1nc(-c2ccccc2)c(-c2ccccc2)[nH]1)NCC1CCCO1 (stereo not given) the cell number change was 27.7%.

With CC(C)Cc1cc(C(=O)Nc2cc(Br)ccc2O)no1 the cell number change was -35.8%, the AC50 [1] was 18.4 µM [falling, single point] and the AC50 [2] was 7.31 µM [falling, partial curve].

With COc1ccc2c(-c3ccccc3)cc(SCC(=O)NC(N)=O)nc2c1 the AC50 [1] was 6.51 µM [rising, partial curve, poor fit].

With C[C@H](NC(=O)c1ccco1)C(=O)NC1CCCCCC1 the cell number change was 14.7% and the AC50 [1] was 0.651 µM [falling, single point].

In the case of Cc1cccc(C(=O)OCCN2CCOCC2)c1, the cell number change is reported as 28.4% and the AC50 [2] is reported as 0.731 µM [falling, single point].

In the case of O=C(CCn1nnc2ccccc2c1=O)NCC1CCC(C(=O)O)CC1 (stereo not given), the cell number change is reported as 4.42%.

Cc1ccc(S(=O)(=O)N(C)C)cc1NC(=S)Nc1ccc2[nH]c(=O)[nH]c2c1 gave a cell number change of 13.3%.

In the case of Cc1cc(/C=C(\C#N)c2nnc(N3CCOCC3)n2-c2ccccc2)c(C)n1-c1ccccc1, the cell number change is reported as 67.3%, the AC50 [1] is reported as 5.17 µM [rising, full curve] and the AC50 [2] is reported as 6.51 µM [falling, partial curve].

With COc1ccc(NC(=O)c2nc(-n3nc(C)cc3C)ccc2Cl)cc1Cl the cell number change was 20%, the AC50 [1] was 0.517 µM [rising, partial curve, poor fit] and the AC50 [2] was 0.461 µM [rising, full curve].

With COc1cc(/C=N/NC(=O)c2ccccc2O)ccc1OCC(=O)Nc1ccccc1 the cell number change was 53.7%, the AC50 [1] was 29.1 µM [rising, single point] and the AC50 [2] was 0.326 µM [falling, full curve].

For O=C1OC(NCc2cccnc2)(c2ccc(Cl)cc2)c2ccccc21 (stereo not given), the cell number change was 17.7% and the AC50 [2] was 29.1 µM [rising, single point].

In the case of COc1ccc(/C=C/C(=O)OCc2csc(-c3ccccc3)n2)cc1OC, the cell number change is reported as 5.12% and the AC50 [1] is reported as 0.731 µM [falling, single point].

Compound CC(=O)N1CCc2cc(Br)cc(S(=O)(=O)NCCCN(C)Cc3ccccc3)c21 has a cell number change of -7.69%.

With CS(=O)(=O)c1ccc(-c2nnc(NC(=O)C3=COCCO3)o2)cc1 the cell number change was -13.6% and the AC50 [2] was 6.51 µM [falling, single point].

In the case of CCOc1ccc2c(c1)sc(N)[n+]2Cc1cc(C)cc2cccnc12, the cell number change is reported as -24.4% and the AC50 [2] is reported as 16.4 µM [falling, single point].

In the case of COc1ccc(C(C(=O)NC(C)(C)C)N(CCc2ccccc2)C(=O)CCC(=O)Nc2cc(C)on2)cc1 (stereo not given), the cell number change is reported as -11.9% and the AC50 [1] is reported as 0.326 µM [falling, full curve, poor fit].

With COc1cc2[nH]c(=S)n(C3CC3)c(=O)c2cc1OC the cell number change was 9.65% and the AC50 [2] was 2.59 µM [rising, single point].

In the case of Cc1cc(C(=O)NNC(=S)NC(=O)/C=C/c2ccccc2Cl)n[nH]1, the cell number change is reported as -37.9%, the AC50 [1] is reported as 23.1 µM [falling, single point] and the AC50 [2] is reported as 20.6 µM [falling, partial curve].

In the case of COCc1nnc(NS(=O)(=O)c2ccc([N+](=O)[O-])cc2)s1, the AC50 [2] is reported as 3.26 µM [falling, full curve].

In the case of O=C(NCc1nc(-c2ccc(C(F)(F)F)cc2)no1)Nc1cc(Cl)cc(Cl)c1, the cell number change is reported as -54.8%, the AC50 [1] is reported as 29.1 µM [falling, single point] and the AC50 [2] is reported as 29.1 µM [falling, single point].

With C=CCn1c(=N)n(CC(=O)c2ccc(OC)cc2)c2ccccc21 the AC50 [2] was 8.2 µM [rising, partial curve].

In the case of O=c1nc(N/N=C/c2ccco2)cn[nH]1, the AC50 [1] is reported as 0.103 µM [rising, single point].

With COC(=O)c1ccc(NC(=O)CN2CCC(NC(=O)c3ccco3)CC2)cc1 the cell number change was 21.5% and the AC50 [1] was 6.51 µM [rising, single point].

Cc1ccc(S(=O)(=O)N(C)c2cc(S(N)(=O)=O)c(C)cc2C)cc1 showed a cell number change of 29.4%.

For O=C(N/N=C/c1c(Cl)[nH]c2ccccc12)c1ccc2c(c1)OCCO2, the cell number change was -26.3% and the AC50 [2] was 5.8 µM [falling, partial curve, poor fit].

With COc1cc(OC)cc(C(=O)N[C@H](C(=O)Nc2nnc(C3CC3)s2)C(C)C)c1 the AC50 [1] was 0.146 µM [falling, full curve, poor fit].

For C=CCN(c1ccccc1)S(=O)(=O)c1cccc(C(=O)Nc2ncccc2O)c1, the AC50 [1] was 0.411 µM [rising, partial curve].

With CC(=O)c1c(O)c2ccccc2n(Cc2ccccc2)c1=O the cell number change was 19.4%.

With CCOC(=O)C(C(=O)OCC)N(C#N)c1nc(OC)nc(N(C)C)n1 the cell number change was 46.5% and the AC50 [1] was 11.6 µM [rising, partial curve, poor fit].

In the case of C=CCNc1nc(C(=O)OCC(=O)Nc2ccccc2C(F)(F)F)cs1, the cell number change is reported as 4.01% and the AC50 [2] is reported as 0.731 µM [falling, single point].

Compound Cn1c2ccccc2c2cc(/C=N/NC(=O)c3cc(O)ccc3O)ccc21 has a cell number change of -15.9%.

COc1ccc(-c2noc(CNC(=O)c3ccoc3C)n2)cc1 showed a cell number change of 13.8%.

For CNCc1ccccc1OCc1ccc(F)cc1, the cell number change was -0.615%, the AC50 [1] was 3.66 µM [falling, single point] and the AC50 [2] was 2.59 µM [falling, single point].

Cn1c(SCC(=O)N2CCCCCC2)nnc1-c1ccco1 gave a cell number change of -3.95%.

For CCOc1ccc(C(C(=O)NC2CCCC2)N(C(=O)CNC(=O)c2ccco2)c2cccnc2)cc1 (stereo not given), the cell number change was 6.58% and the AC50 [2] was 25.1 µM [falling, single point].

CCN(CC(=O)Nc1ccc(NC(C)=O)cc1)C(=O)Cc1ccccc1F gave a cell number change of 5.26%.

With COC(=O)CCCC(=O)NC(C)c1cnn(-c2ccccc2C)c1C (stereo not given) the cell number change was -23.8% and the AC50 [2] was 18.4 µM [falling, partial curve].

In the case of Cc1ccc(C(=O)NC(C(=O)Nc2ccccc2)c2ccccc2)cc1 (stereo not given), the AC50 [1] is reported as 0.517 µM [rising, full curve, poor fit].

From PubChem BioAssay AID2685 (National Center for Advancing Translational Sciences (NCATS), 2010)
